Source: PubChem BioAssay AID1347423 (Functional Genomics Laboratory (NCATS/FGL), 2020)
Out of some 52,000 sequences screened, about 210 (0.4%) were called active.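 How the source made its calls: active means gene whose silencing raises cell survival under the drug, median off-target-corrected z-score across its silencing RNAs 2 or more; inactive means the rest.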 This is one part of the list.

test: Resistance to Poly (ADP-Ribose) Polymerase inhibitor: Gene Identification via Genome-wide siRNA Screen; conditions: mouse BRCA2 R2336H ES cells, olaparib, CellTiter-Glo viability; active compounds read high
Method in brief: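 Genome-wide siRNA screen (3 siRNAs/gene, 20 nM) in mouse ES cells carrying hypomorphic BRCA2 R2336H; olaparib 500 nM added 48 h post-transfection, CellTiter-Glo viability 72 h later. Normalized to plate-median negative control; MAD z-scores, gene median, seed-adjusted.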

| Sequence | z-score |
| --- | --- |
| GGACUUUGAAUCAUGUGAATT against Lss | inactive: -0.294 |
| GGACUUACUUCCCAUUUCGTT against 1110015E22Rik | inactive: -1.36 |
| CCCUGACACAGUAGCAUUUTT against Eef1a1 | inactive: -3 |
| CCAUACACAACAUUCCAGATT against Slc39a11 | inactive: -0.214 |
| CGAUCGAAUCCUUAAGUACTT against Ttll1 | inactive: -0.422 |
| GGAUGGUGAGAAGCUGAUCTT against Omp | inactive: -0.552 |
| GGAAAUGAAUUUUGGAAUCTT against Pps | inactive: -0.876 |
| GGACUUCCAGUACCUAAGGTT against Smpd2 | inactive: -0.694 |
| CGAAUCUCUGGCAAAAUGGTT against Cdc2a | inactive: 0.982 |
| CCAGGCAGCUAAACUGUGUTT against Tex11 | inactive: 0.763 |
| GCCAGCAACCCUCUUCGUUTT against Foxo6 | inactive: 0.732 |
| CCGGGAAAUUCUGUUAGCCTT against Pla2g1b | inactive: -2.47 |
| GGGACUUCAUUGCUACUAATT against BC028440 | inactive: 0.103 |
| GGAUUUAUCCCAAAAUCUATT against Tmem26 | inactive: 0.759 |
| GGAAGAGAGAAUAAGUAUCTT against Robo2 | inactive: 0.196 |
| GGUUUUUACUUUGACCCUGTT against Wdr21 | inactive: -2.18 |
| GGAACCAAGCCAUGAUUUUTT against Mrgprb2 | inactive: 0.474 |
| CCAUACAAGAGUGACAGUUTT against Olfr810 | inactive: -1.75 |
| GCGUGGUUCAGUCAGGUAUTT against 2310022M17Rik | inactive: 0.682 |
| GGAAGGAAAAAGGCUUUUGTT against Olfr135 | inactive: -1.2 |
| CAGGCAUCGAAACAUUCAUTT against Olfr672 | inactive: 1.56 |
| GGCUCAGAUUUUGUGAUUCTT against Olfr894 | inactive: 0.308 |
| CGUGGAUGUGUCAUCUAUUTT against Mapk10 | inactive: -0.741 |
| GGAAGCUUAUAAAAAUGUGTT against Htatip2 | inactive: 0.352 |
| GGGAACAAAGCUGACCUUGTT against Rab5b | inactive: -2.54 |
| GGAGCGAGUAGACAUUCUGTT against Rdh13 | inactive: -0.119 |

Looked up one by one from the entries so far, 6 records:

| Sequence | z-score |
| --- | --- |
| GGAUGGUGAGAAGCUGAUCTT against Omp | inactive: -0.552 |
| GGCUCAGAUUUUGUGAUUCTT against Olfr894 | inactive: 0.308 |
| GGAAAUGAAUUUUGGAAUCTT against Pps | inactive: -0.876 |
| CCAGGCAGCUAAACUGUGUTT against Tex11 | inactive: 0.763 |
| CCAUACAAGAGUGACAGUUTT against Olfr810 | inactive: -1.75 |
| CGUGGAUGUGUCAUCUAUUTT against Mapk10 | inactive: -0.741 |

Following part

| Sequence | z-score |
| --- | --- |
| GCUACGAGAUUCUUGUUGCTT against Taar3 | inactive: 0.374 |
| GGAACCUAUUGAAUCUGGGTT against D830019K17Rik | inactive: 0.578 |
| GGCAUUGAGAAGUUUGAAGTT against 4831428F09 | inactive: 0.401 |
| GAAAAACUGCUGUUUUGGATT against Ly6g6d | inactive: 0.131 |
| CCGGCAACAUGCGUGAAUUTT against Trpv4 | inactive: -0.769 |
| CGCGAUUCAGCUCAUUCUCTT against 3200001I04Rik | inactive: -0.0352 |
| GGUUUGCAUAUCUCACCCUTT against Sirt6 | inactive: 0.693 |
| GGGUUUGAGUGCUGUGAAGTT against Ap4s1 | inactive: -3.13 |
| GCCGUCUUCCGAAGAAUACTT against Mettl1 | inactive: -1.28 |
| GGUAAUGCUUGAAGAUAAUTT against Ivns1abp | inactive: -0.157 |
| GGCCAGGAGAAGAAGAUACTT against E130014J05Rik | active: 4.51 |
| GGUUCUCUUGUAAAGAUGUTT against Slco1a1 | inactive: -0.229 |
| GGAGUGUUUCCAGAGAGCATT against 4632415K11Rik | inactive: 0.143 |
| GCACAUUUUGCGAGUACUCTT against Rps18 | inactive: -3.53 |
| GGAAUUGAAGUCAGAGUUATT against Myoc | inactive: 2.03 |
| GGAAACAUGACAGUGGUGCTT against 2310003F16Rik | inactive: 0.756 |
| CCUGAGAGUAACUCUGAGGTT against 5033413H12Rik | inactive: 1.34 |
| CGACAUGUAGCUCUGCAUCTT against Tmem25 | inactive: 0.651 |
| GGUCACUAGUUUAUUUUGATT against 2610208M17Rik | inactive: -0.467 |
| GCACUUUUGUUCACUUAAATT against Fmo1 | inactive: -1.09 |
| GGAGCUGAACAAGAAAUUGTT against Polr3h | inactive: 1.14 |
| GGAAUCAGUUUCCCUGUAUTT against Jam4 | inactive: -0.0407 |
| GGAGAGUGCUGUGAAGCCATT against Vegfb | inactive: -0.0773 |
| GGAGAAGAAAAACCACUACTT against Cacng8 | inactive: 0.94 |
| GGAUUCUGAGAAAUCAAGATT against Serpinb12 | inactive: 0.95 |
| GGCUGAUCCUGUAUUCUUATT against Sertad3 | inactive: 0.48 |

| Sequence | z-score |
| --- | --- |
| GGAAUUAAAGAAAUAUGGCTT against Osp94 | inactive: 0.462 |
| GGGUGUAACUGUGAGAUAATT against 2410195B05Rik | inactive: -0.00189 |
| GCAAUACGCAAACAUUCACTT against 2810021B07Rik | inactive: -0.328 |
| GGGAUCGUAGAAGAUUAUATT against 2610029G23Rik | inactive: 0.109 |
| CGAGAAACCACAAUUCUCUTT against Arl11 | inactive: -0.44 |
| GGAAUUCUGACGUGAAGAATT against Olfr13 | inactive: -2.85 |
| CGCUCAGGUCACCAAAAAGTT against Acaca | inactive: -1.31 |
| GGAAGAAAUGUACAAACUGTT against Spg21 | inactive: 0.858 |
| GGAGAUUGAGGAAUCAUCATT against 1700108E19Rik | inactive: 0.0305 |
| GCAAGUGAUGAAUGCUUACTT against 3100002P13Rik | inactive: 0.534 |
| GGUGACUCUGAUCAAUUUCTT against Fkbpl | inactive: 0.347 |
| CUCAACAUUCUCUAAACAUTT against BC038328 | inactive: 0.975 |
| GGUAGUGAUCCUCAAAAAATT against Myc | inactive: 0.349 |
| GGGCAGAAAACAACUGGAATT against Pappa | inactive: -0.971 |
| GCAAUCUUAGGUUCAUGGUTT against C330014B19Rik | inactive: 0.81 |
| GCUCCCAAGUUUACCCAGCTT against 1110037P11Rik | inactive: 0.199 |
| GGCACCUGGAGUUUUAGAGTT against Ltb4r1 | inactive: -0.35 |
| GGCCUAUCAAAAUUCAGUUTT against Rbm7 | inactive: 0.196 |
| GCCAGUGUUCGGAGAAGAUTT against Pitx1 | inactive: 0.201 |
| GGCCUAGUGCCUUUAUUUGTT against Ptgfr | inactive: 1.03 |
| GGGUGGACUAGGAGUGGAUTT against D330022A01Rik | inactive: -1.04 |
| CCUAGGACAUUUAUUAACATT against Casc3 | inactive: -0.369 |
| GGUGGAAGCAAGCUGUUCUTT against Trim39 | inactive: 0.0684 |
| GGACUUACAAAAAUUCCAGTT against Fcer2a | inactive: 1.1 |
| GGACUCAAGAUUUCAGAAUTT against Btbd7 | inactive: -0.275 |
| CCCUCUUUAUCAAAGCCAATT against 2310067E19Rik | inactive: -0.732 |

| Sequence | z-score |
| --- | --- |
| GCCCACAGGAUAAUUGUUATT against 0610010K06Rik | inactive: 1.62 |
| CCAAGUGGGAUUUGCCAACTT against Ifi47 | inactive: 0.0942 |
| CUGCUUUUGAGUCUGGCGATT against Iigp5 | inactive: 0.314 |
| GGAUUGUUUCAGAGAUGGATT against Stx6 | inactive: -1.02 |
| GGAAAAAAGGAUUUCAAACTT against Rad9b | inactive: 0.238 |
| CCCUCUAUGCCAAAAGCUATT against CRG-L1 | inactive: 0.387 |
| GGUACCUUCAUCUUGGUGGTT against Olfr699 | inactive: -0.0692 |
| CCUACGCAAUGAUGACCAGTT against Thrap5 | inactive: -0.965 |
| GGGAUAAUAAAGAAGAAGUTT against Dach2 | inactive: 0.428 |
| GGUCAAUACAAAGAAACUATT against Rabl2a | inactive: -0.23 |
| GGUUGUCAGUAAGAACCUGTT against BC053071 | inactive: -0.9 |
| CGGAUGAGAGGACAUGUAUTT against Tcd1d16 | inactive: 0.88 |
| GGGUAUGGUUUCAUCACUUTT against Boll | inactive: 0.257 |
| GGUUUGGCUUAGCUCAUCATT against 9030224M15Rik | inactive: -2.81 |
| GGAUGCUAGCAAAAGGGAUTT against Bex2 | inactive: -0.211 |
| CGUGACUAUUGGAGAAUUUTT against Gpr156 | inactive: 1.31 |
| GGAAUAGAUUUUUUGAGUGTT against Twistnb | inactive: -0.389 |
| CCAUUGCCUACCUUGGAUGTT against Olfr492 | inactive: -0.793 |
| CCACCUAAUUUAUUGCUGUTT against Mafk | inactive: 1.45 |
| GGCAUUGAUCCUGUCCAUGTT against Ddx11 | inactive: 1.47 |
| CCCAAUUAAAUUUGAGGGUTT against Cai | inactive: -0.882 |
| GCCACAGAAAGUGAUUGAGTT against Rbp7 | inactive: 0.534 |
| GGUCUGUAUCCUUAUGGCUTT against Olfr103 | inactive: 1.39 |
| GGAAGAUGUUGAUGAUAUCTT against 1110031B06Rik | inactive: 1.01 |
| GGACCAACCUUAUAUGAAATT against 1110064N10Rik | inactive: -0.362 |
| GGAAGCUUUUUUCUGAGCUTT against 1810037C20Rik | inactive: 0.0985 |
